# Results published in paper PMC12040169 (PLOS Biology, 2025).
# The list shows a part of the results.
# Tested on: T1, CTL2-GFP (C. trachomatis L2/434/Bu, GFP-expressing)
# T1 construct: L2/434/Bu, GFP-expressing
# Set-up: species or system HeLa; Intracellular C. trachomatis growth in HeLa cells, bulk GFP fluorescence relative to DMSO
# Details: bulk GFP, single well; 28.5 h, 10 µM; inhibitor
row,Structure (SMILES),% of control remaining
1,Cc1ccc2c(c1)C(=O)NCC1(CCN(C(=O)C3CC3)CC1)O2 [CBK284835],104.699%
2,O=C(Cc1ccc([N+](=O)[O-])cc1)Nc1cc(C(=O)O)cc(C(=O)O)c1 [CBK263345],131.866%
3,Cn1c(=O)n(C)c2cc(CNC(=O)COCC3CCCCO3)ccc21 (stereo not shown) [CBK307061],129.687%
4,COc1ccc(C)cc1S(=O)(=O)Nc1cc(Cl)ccc1C(=O)NCc1ccccc1 [CBK113954],97.411%
5,Cc1cc(C)[n+](-c2ccccc2O)c(C)c1 [CBK005458G],106.088%
6,Cc1ccccc1-c1cc(C(=O)N(C)C)c2cnn(C(C)C)c2n1 [CBK306245],110.472%
7,CC1=NN(c2ccccc2)C(=O)/C1=C(/C)NNC(=O)c1ccccn1 [CBK261837],88.0097%
8,COc1cc(NC(=O)c2ccc3c(c2)C(=O)N(Cc2ccco2)C3=O)c(C(=O)O)cc1OC [CBK267436],117.187%
9,CC(=O)N(C)c1nc(-c2ccccc2C)ccc1C(=O)NC1CCCCC1 [CBK106333],118.855%
10,CN(c1ncc(-c2ccccc2)cc1C(=O)NCc1ccco1)S(C)(=O)=O [CBK076506],192.157%
11,Cc1onc(-c2ccccc2)c1CNC(=O)c1ccc(OC(F)(F)F)cc1 [CBK144080],116.381%
12,Cc1ccc(CC2CCCN2CC(=O)NCc2ccccn2)cc1 (stereo not shown) [CBK304070],110.363%
13,O=C(O)c1ccc(CNCc2ccc(-c3ccc(Cl)cc3)o2)cc1 [CBK269619C],109.681%
14,Cc1nn(C)cc1-c1cncn1CC(C)N1CCCCC1 (stereo not shown) [CBK281781],137.104%
15,CCCc1nc(NC(CC)c2nc(C)c(C)s2)c2cnn(C)c2n1 (stereo not shown) [CBK307261],133.954%
16,COc1cccc(Nc2cc(-c3ccc(N4CCOCC4)cc3)ncn2)c1 [CBK090733],120.14%
17,O=C(NCCN1CCCCC1)C1CC(=O)N(Cc2ccncc2)C1 (stereo not shown) [CBK306629],142.419%
18,CCOc1cccc(OCC(=O)N2CCC(c3cc(C(=O)NC)c4ccccc4n3)C2)c1 (stereo not shown) [CBK285896],141.122%
19,Oc1ccc(/N=N/c2cccc(Br)c2)cc1/C=N/c1ccc(-c2nc3ncccc3o2)cc1 [CBK262009],93.6053%
20,CCCCCOc1ccc(-c2ccc(Cl)nn2)cc1 [CBK007044],133.884%
21,CC(NCc1ccc(S(N)(=O)=O)cc1)=C1C(=O)c2ccccc2C1=O [CBK262692],100%
22,CCCCOc1nccnc1-c1cnn(C)c1 [CBK107085],100%
23,NC(=O)C1CCN(C(=O)CN(c2ccccc2)S(=O)(=O)c2ccccc2[N+](=O)[O-])CC1 [CBK265320],100%
24,CC(C)(C)c1ccc(OCC(=O)Nc2ccc(S(=O)(=O)N3CCc4ccccc43)cc2)cc1 [CBK265352],127.533%
25,COc1cc(C#N)ccc1OCc1ccccc1 [CBK002577],91.7488%
26,CCn1cc(CN2C3CCC2CC(O)(c2cccc(F)c2)C3)c(C)n1 (stereo not shown) [CBK282755],133.403%
27,FC(F)(F)c1[nH]c2ncccc2c1CN1CCSCC1 [CBK283257],121.609%

# Laid out differently: results already given.
row	Structure (SMILES)	% of control remaining
17	O=C(NCCN1CCCCC1)C1CC(=O)N(Cc2ccncc2)C1 (stereo not shown) [CBK306629]	142.419%
18	CCOc1cccc(OCC(=O)N2CCC(c3cc(C(=O)NC)c4ccccc4n3)C2)c1 (stereo not shown) [CBK285896]	141.122%
23	NC(=O)C1CCN(C(=O)CN(c2ccccc2)S(=O)(=O)c2ccccc2[N+](=O)[O-])CC1 [CBK265320]	100%
25	COc1cc(C#N)ccc1OCc1ccccc1 [CBK002577]	91.7488%

# Sorted by length of the SMILES (rising): some entries from above.
row,Structure (SMILES),% of control remaining
26,CCn1cc(CN2C3CCC2CC(O)(c2cccc(F)c2)C3)c(C)n1 (stereo not shown) [CBK282755],133.403%
2,O=C(Cc1ccc([N+](=O)[O-])cc1)Nc1cc(C(=O)O)cc(C(=O)O)c1 [CBK263345],131.866%
19,Oc1ccc(/N=N/c2cccc(Br)c2)cc1/C=N/c1ccc(-c2nc3ncccc3o2)cc1 [CBK262009],93.6053%

# Later entries.

row,Structure (SMILES),% of control remaining
1,O=C(COc1ccccc1)Nc1ccc2oc(-c3cccnc3)nc2c1 [CBK262959],133.134%
2,COc1ccc2c(c1)c(C(=O)N1CCn3nc(CO)cc3C1)c(C)n2C [CBK306764],151.596%
3,COc1cc(OC)nc(C(NC(=O)C2CCN(C(=O)c3ccccc3)CC2)c2ccccc2)n1 (stereo not shown) [CBK059650],144.813%
4,Cc1ccc(OCCCC(=O)Nc2ccc(C(N)=O)cc2)c(C)c1 [CBK268032],124.331%
5,O=C(N[C@H]1CCN2C(=O)[C@@H](Cc3ccccc3)NC(=O)[C@H]12)c1cnccn1 [CBK289231],126.407%
6,COCC(=O)N1CCc2sccc2C1c1ccc(NC(=O)c2cccc(F)c2)cc1 (stereo not shown) [CBK286468],132.002%
7,CN(C)C[C@H]1CC[C@]2(CC1)CN(C(=O)C1CC1)Cc1ccccc1O2 [CBK284920],122.914%
8,CC(=O)NCCCCCC(=O)Nc1ccc(Cl)cn1 [CBK091341],118.073%
9,NS(=O)(=O)c1ccc(NC(=S)NNC(=O)c2cc(Br)ccc2Cl)cc1 [CBK266970],122.667%
10,O=C(c1ccc2c(c1)OCCO2)N1CCN(C(=O)c2ccco2)CC1 [CBK144480],110.366%
11,c1cc(OCc2cccs2)cc(N2CCNCC2)c1 [CBK022557F],150.524%
12,CC(C)C1C2CCCCC2=NN1C(=O)/C=C/C(=O)O (stereo not shown) [CBK286862],125.946%
13,O=C(NCCc1ccccc1)c1ccccc1NS(=O)(=O)N1CCCC1 [CBK268407],109.646%
14,O=C(COc1ccc2oc3c(c2c1)CCCC3)Nc1ccncc1 [CBK266227],123.646%
15,Nc1nc(N)c2ncn([C@H]3C[C@@H](O)[C@@H](CO)O3)c2n1 [CBK201208],115.207%
16,CC(C)Nc1nccnc1-c1cccc(O)c1 [CBK037089],88.6758%
17,COC(=O)C1=C(C)N=C2SCCC(=O)N2C1c1ccc(C(C)C)cc1 (stereo not shown) [CBK073523],119.849%
18,COc1ccc(C(NC(=O)c2c(C)nc3sccn23)C2CC(O)C2)cn1 (stereo not shown) [CBK307330],72.7919%
19,CN(C)CCOCc1ncccc1OCCOC1CCCCO1 (stereo not shown) [CBK045662],103.921%
20,CC(=O)N1CCC[C@H]2NC(=O)CNC(=O)C3(C/C=C/C[C@H]21)CCN(C(=O)c1cc(C)no1)CC3 [CBK292176],118.761%
21,Cc1cccc2c3c([nH]c12)CCN(C(=O)[C@@H]1C[C@@H]2C=C[C@H]1C2)C3 [CBK281656],126.233%
22,Cc1cc2ncc(-c3[nH]ncc3[N+](=O)[O-])cn2n1 [CBK269106],138.36%
23,Cc1ccc(F)c(CN2CCN(CCO)[C@@H]3CS(=O)(=O)C[C@@H]32)c1 [CBK307699],126.569%
24,O=C(N/N=C/c1c[nH]nc1-c1ccccc1)c1cccnc1 [CBK262461],113.93%
25,CN(C)CCN(C)c1cncc(-c2ccc3c(c2)OCO3)n1 [CBK065897],164.439%
26,Cc1ccc(C(=O)NNC(=S)Nc2ccc(S(N)(=O)=O)cc2)cc1[N+](=O)[O-] [CBK266866],169.319%
27,Cc1nccn1CC1(O)CCN(Cc2ccccc2F)CC1 [CBK284961],138.785%

row,Structure (SMILES),% of control remaining
1,COc1ccc(F)cc1-c1ccccc1CC1(C(=O)NCc2cccs2)CCOCC1 [CBK286416],95.4037%
2,CN(C)C(=O)C1(Cc2ccc(-c3cccs3)cc2)CCN(C(=O)Cc2ccccc2)CC1 [CBK285784],131.837%
3,COc1ccc(SCC(=O)O)cc1 [CBK111455],149.714%
4,CN1CCCCC[C@@H]2[C@@H]1[C@H](c1ccccc1)CN2C(=O)CN1CCCCCC1=O [CBK285524],111.875%
5,O=C1c2ccccc2S(=O)(=O)N1CC(O)Cn1c2ccc(Br)cc2c2cc(Br)ccc21 (stereo not shown) [CBK262347],94.5647%
6,COc1ccc(OC)c(C(C)NC(=O)C2CCN(CCc3c[nH]c4ccccc34)CC2)c1 (stereo not shown) [CBK148763],162.568%
7,O=C(C1CCCO1)N1CCC(c2ccc(F)cc2)CC1 (stereo not shown) [CBK283484],137.32%
8,CC(C)Oc1ccccc1CN(C)C(C)c1ccc(S(N)(=O)=O)cc1 (stereo not shown) [CBK305436],73.8421%
9,COc1cccc(CN(Cc2ccco2)Cc2cncn2C)c1 [CBK282497],125.039%
10,O=C(Cn1cccc2cc(-c3cccs3)nc1-2)NC1CC1 [CBK281897],88.4561%
11,CCn1ncc(Cn2cc(NC(=O)C3CCCCC3C(=O)O)cn2)c1C (stereo not shown) [CBK286859],122.371%
12,COC(=O)c1ccc(N2C(=O)CC(NCCc3ccc(S(N)(=O)=O)cc3)C2=O)cc1 (stereo not shown) [CBK262859],107.954%
13,CC1(C)CN(c2ccc(Cl)cn2)C1=O [CBK018550],132.563%
14,O=C1c2ccc(Oc3cccc([N+](=O)[O-])c3)cc2C(=O)N1c1ccccn1 [CBK261190],91.018%
15,COCCNC(=O)C1CCCCC1C(=O)O (stereo not shown) [CBK269135],79.2716%
16,Cc1cccc(CN(CC(C)(C)CN)C(=O)Nc2ccccc2C(F)(F)F)n1 [CBK002409C],112.878%
17,FC(F)(F)c1cccc(-c2cn3ccnc3c(NCCc3ccccn3)n2)c1 [CBK066491],93.0687%
18,Cc1c(C(=O)O[C@H]2C[C@@H](c3ccc(F)cc3)N(C)C2=O)cnn1C [CBK283616],89.0831%
19,COC(=O)CCc1ccc(S(=O)(=O)N2CCCN(Cc3c[nH]c4ccc(OC)cc34)CC2)cc1 [CBK062985],151.626%
20,N=C(N)SCC1CNC(=N)S1 (stereo not shown) [CBK260991],111.31%
21,COc1ccc(F)c(CN(CC(C)(C)CN)C(=O)Nc2ccc(C(C)(C)C)cc2)c1 [CBK002461C],84.943%
22,Cc1ccc(CN2CCNCC2CCO)o1 (stereo not shown) [CBK269844],123.622%
23,COc1cc(/C=N/NC(=O)CCc2c(C)n[nH]c2C)ccc1O [CBK262925],128.202%
24,CSc1ccc(SC/C(N)=N/O)cc1 [CBK025411C],121.612%
25,CC(CC(=O)N1CCCC(c2cc3cccnc3[nH]2)C1)n1ccnc1 (stereo not shown) [CBK285034],93.5449%
